The results in this text go back to PubChem BioAssay AID328 (DTP/NCI, 2004).

The test deals with BDF1 mice, P388 leukemia ip, median survival T/C. As to the kind of experiment: NCI In Vivo Anticancer Drug Screen. Data for tumor model P388 Leukemia (intraperitoneal) in B6D2F1 (BDF1) mice. The following applies: T/C endpoint: median survival time, higher T/C = longer survival. In short, it runs like this: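 In tumour-bearing mice, survival after compound treatment is set against the vehicle group and given as a quotient.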

[1] abbreviates: dose: 50.0 mg/kg/injection, schedule: Q01DX009 (ip), vehicle: Klucel (hydroxypropylcellulose) (HPC).
The mark [2] stands for this setting: dose: 100.0 mg/kg/injection, schedule: Q01DX009 (ip), vehicle: Klucel (hydroxypropylcellulose) (HPC).
Where [3] appears, read: dose: 100.0 mg/kg/injection, schedule: Q04DX003 (ip), vehicle: saline with Tween-80.
Where [4] appears, read: dose: 200.0 mg/kg/injection, schedule: Q04DX003 (ip), vehicle: saline with Tween-80.
The mark [5] stands for this setting: dose: 400.0 mg/kg/injection, schedule: Q04DX003 (ip), vehicle: saline with Tween-80.
The mark [6] stands for this setting: dose: 50.0 mg/kg/injection, schedule: Q01DX009 (ip), vehicle: saline with Tween-80.

The list is a part of this screen's results and no random one: it is rich in T/C values a quarter to a half above the control, in often repeated tests (any T/C) and in doses without a T/C. Further doses and runs are listed elsewhere. T/C gives the treated animals as a percentage of the vehicle group. Some entries give survivors of the animals treated and no T/C: the source files T/C as zero there, which appears to mark a toxic dose or a test without result, not a measured value. Some doses without a T/C left all or most animals alive at the check, yet need not have been tolerated: the source hardly ever lists a survival T/C far under the control, and the zero likely stands for such cases as well. Counts of survivors are from the toxicity check (mostly the fifth day) where no day follows; animals may have died later. Schedules are NCI's codes, taken here to give the interval after Q, in days (D) or hours (H), and the number of doses after X. For survival time, this PubChem deposit counts one and a half times the control or more as active, and values a quarter to a half above the control carry no call in these data; other NCI protocols may use other cut-offs. Some T/C values carry the count of animals alive at the toxicity check (mostly the fifth day); without a count, all were alive then. Some entries hold several experiments; the results are listed from low to high. Positions of bridges follow the written chain, without caps; N, C: chain ends. Non-standard residues stand in square brackets, D forms with d. Residues, ends and D or L forms follow the SMILES beside them. Chains are numbered I, II in the order given. *: point of attachment. Quinoxaline2carbonyl = O=C(c1cnc2ccccc2n1)*; NMeV = CN[CH](C(=O)O)C(C)C; NMeC = CN[CH](CS)C(=O)O

Regarding `FC(F)(F)c1ccc2nc(CI)c(CI)nc2c1`, the T/C was 126 % of control (dose: 3.12 mg/kg/injection, schedule: Q01DX009 (ip), vehicle: saline with Tween-80); 136 % of control (dose: 6.25 mg/kg/injection, schedule: Q01DX009 (ip), vehicle: saline with Tween-80); 140 % of control (dose: 11.8 mg/kg/injection, schedule: Q01DX009 (ip), vehicle: saline); 130 and 131 % of control [4 of 6 alive] (dose: 18.0 mg/kg/injection, schedule: Q01DX009 (ip), vehicle: saline). Moreover, the survivor count is 0 of 6 (dose: 27.0 mg/kg/injection, schedule: Q01DX009 (ip), vehicle: saline); 0 of 6 (dose: 50.0 mg/kg/injection, schedule: Q04DX003 (ip), vehicle: Klucel (hydroxypropylcellulose) (HPC)); 0 of 6 (dose: 100.0 mg/kg/injection, schedule: Q04DX003 (ip), vehicle: other); 0 of 6 (dose: 200.0 mg/kg/injection, schedule: Q04DX003 (ip), vehicle: other); 0 of 6 (dose: 400.0 mg/kg/injection, schedule: Q04DX003 (ip), vehicle: other).

As to `O=C(O)O.[Mn]`, the survivor count (dose: 400.0 mg/kg/injection, schedule: Q01DX010 (ip), vehicle: water) is reported as 10 of 10.

For `O=[N+]([O-])C1(Cl)CCCCC1`, the survivor count is 6 of 6 under setting [1]; 0 of 6 under setting [2]; 0 of 6 (dose: 200.0 mg/kg/injection, schedule: Q01DX009 (ip), vehicle: Klucel (hydroxypropylcellulose) (HPC)).

For the molecule `CS(=O)(=O)OCCN(CCOS(C)(=O)=O)c1ccccc1`, the T/C by setting is: (dose: 25.0 mg/kg/injection, schedule: Q04DX003 (ip), vehicle: saline with Tween-80) 145 % of control; (dose: 25.0 mg/kg/injection, schedule: Q04DX003 (ip), vehicle: saline) 136 % of control; (dose: 37.5 mg/kg/injection, schedule: Q04DX003 (ip), vehicle: saline) 145 % of control. Further, the survivor count runs as follows: under setting [3], 6 of 6; under setting [4], 5 of 6; under setting [5], 0 of 6.

On to `CCOC(=O)C(=Cc1c[nH]c2ccccc12)C(=O)OCC`, for which the T/C under setting [3] is 136 % of control.

As for `CN1N=Nc2cccc3cccc1c23`, the survivor count reads like this: (dose: 150.0 mg/kg/injection, schedule: Q01DX009 (ip), vehicle: Klucel (hydroxypropylcellulose) (HPC)) 0 of 6; (dose: 225.0 mg/kg/injection, schedule: Q01DX009 (ip), vehicle: Klucel (hydroxypropylcellulose) (HPC)) 0 of 6.

Regarding `CCn1cnc2c(=S)nc(N)[nH]c21`, the survivor count is, setting by setting: (dose: 150.0 mg/kg/injection, schedule: Q04DX003 (ip), vehicle: Klucel (hydroxypropylcellulose) (HPC)) 1 of 6; (dose: 225.0 mg/kg/injection, schedule: Q04DX003 (ip), vehicle: Klucel (hydroxypropylcellulose) (HPC)) 1 of 6; (dose: 335.0 mg/kg/injection, schedule: Q04DX003 (ip), vehicle: Klucel (hydroxypropylcellulose) (HPC)) 2 of 6.

For `[Cl][Hg][CH]1CCCC2OC(C(Cl)(Cl)Cl)OC21` (stereo not given), the survivor count is listed as 4 of 6 (dose: 1.56 mg/kg/injection, schedule: Q01DX001 (ip), vehicle: saline with Tween-80) and 2 of 6 (dose: 3.13 mg/kg/injection, schedule: Q01DX001 (ip), vehicle: saline with Tween-80).

Consider `CCOP(=S)(N1CC1C)N1CC1C` (stereo not given), for which the T/C was 131 % of control (dose: 66.0 mg/kg/injection, schedule: Q01DX007 (ip), vehicle: saline with Tween-80); 133 % of control under setting [3]; 125 % of control under setting [4]. Further, under setting [5], the survivor count is listed as 6 of 6.

For the molecule `CC(C)C(=O)OCC1OC(n2cnc3c(=S)nc[nH]c32)C(OC(=O)C(C)C)C1OC(=O)C(C)C` (stereo not given), under “dose: 200.0 mg/kg/injection, schedule: Q01DX009 (ip), vehicle: saline with Tween-80”, the T/C is 127 % of control.

For `CC1NC(=O)C(NC(=O)c2cnc3ccccc3n2)COC(=O)C(C(C)C)N(C)C(=O)C2CSSCC(C(=O)N(C)C(C(C)C)C(=O)OCC(NC(=O)c3cnc4ccccc4n3)C(=O)NC(C)C(=O)N2C)N(C)C1=O` (stereo not given) (I: Quinoxaline2carbonyl-SA[NMeC][NMeV] / II: Quinoxaline2carbonyl-SA[NMeC][NMeV]; ester I:1-II:C, I:C-II:1; disulfide I:3-II:3; configuration not given here), the T/C (dose: 6.0 micrograms/kg/injection, schedule: Q01DX009 (ip), vehicle: saline) is 147 % of control.

As for `C1OCC2[CH2][Hg][S][Hg][CH2]C1O2`, the survivor count by setting is: (dose: 10.0 mg/kg/injection, schedule: Q01DX010 (ip), vehicle: saline) 0 of 6; (dose: 20.0 mg/kg/injection, schedule: Q01DX010 (ip), vehicle: saline) 0 of 6; (dose: 40.0 mg/kg/injection, schedule: Q01DX010 (ip), vehicle: saline) 0 of 6; (dose: 80.0 mg/kg/injection, schedule: Q01DX010 (ip), vehicle: saline) 0 of 6.

For `COc1cccc(CCCC(=O)O)c1`, the survivor count (dose: 100.0 mg/kg/injection, schedule: Q04DX003 (ip), vehicle: Klucel (hydroxypropylcellulose) (HPC)) is 6 of 6.

Regarding `O=[N+]([O-])c1cccc2c[n+](Cc3ccccc3)ccc12`, the T/C runs as follows: (dose: 25.0 mg/kg/injection, schedule: Q01DX009 (ip), vehicle: saline with Tween-80) 128 % of control; under setting [6], 147 % of control.

Consider `O=c1oc(-c2cc([N+](=O)[O-])ccc2Cl)nc2ccccc12`, for which, under “dose: 50.0 mg/kg/injection, schedule: Q04DX003 (ip), vehicle: saline with Tween-80”, the T/C is 133 % of control.

Take `O=c1cc(O)ccn1CCc1cccs1`: under setting [6], the survivor count was 3 of 6.

For the molecule `CCCCCCCCN(c1ccc(I)cc1)S(=O)(=O)c1ccc(C)cc1`, the T/C under setting [4] is 138 % of control.

`N#CCNC(=O)c1ccccc1`: the survivor count runs as follows: (dose: 25.0 mg/kg/injection, schedule: Q01DX009 (ip), vehicle: Klucel (hydroxypropylcellulose) (HPC)) 6 of 6; under setting [1], 5 of 6; under setting [2], 0 of 6.

Consider `O=C1OC(C(O)CO)C(O)=C1O` (stereo not given), for which the T/C (dose: 0.12 mg/kg/injection, schedule: Q01DX009 (ip), vehicle: saline, evaluated on day 30) is recorded as 100, 109, 110 % of control and the T/C (dose: 0.12 mg/kg/injection, schedule: Q01DX009 (ip), vehicle: saline, evaluated on day 60) is 100 % of control. Further, the survivor count by setting is: (dose: 8.0 mg/kg/injection, schedule: Q01DX001 (ip), vehicle: saline) 5 of 10; (dose: 400.0 mg/kg/injection, schedule: Q01DX009 (ip), vehicle: saline) 3 of 6.
